# Reference: the supplement of paper PMC8104966
# This is one part of the list. Single values are uncertain here, since repeats match poorly.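 U2OS cells carrying ACE2 were mixed with U2OS cells carrying full-length spike, and fusion was scored by imaging as the share of nuclei showing both cell types' fluorescent markers. A compound counts as an inhibitory hit when it is non-toxic and its fusion z-score falls below -3, meaning more than three standard deviations below the plate's DMSO wells.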
# Test system: U2OS ACE2 x SARS-CoV-2 spike co-culture
# Assay: cell-cell fusion (fraction fused) z-score vs plate DMSO control; higher = more fusion
# Conditions: 30 µM; 5 h; toxicity class: non-toxic, passed QC
row,SMILES,cell-cell fusion (z-score)
1,C[C@@H](NCCc1ccc(O)cc1)[C@@H](O)c1ccc(O)cc1.Cl [Ritodrine hydrochloride],inactive: -0.459
2,CCOC(=O)[C@H](CCc1ccccc1)N[C@@H](C)C(=O)N1CCC[C@H]1C(=O)O.O=C(O)/C=C\C(=O)O,inactive: 2.64
3,C[C@H](NC(=O)Cc1cc(F)cc(F)c1)C(=O)N[C@H](C(=O)OC(C)(C)C)c1ccccc1,inactive: 3.26
4,COc1ccc2cc(CCC(C)=O)ccc2c1 [Nabumetone],inactive: 1.48
5,CC(=O)[N-]S(=O)(=O)c1ccc(N)cc1.[Na+] [Sulfacetamide sodium],inactive: 2.69
6,CCC[C@@H]1C[C@@H](C(=O)N[C@@H](C2O[C@H](SC)[C@H](O)[C@@H](O)[C@H]2O)[C@H](C)Cl)N(C)C1.Cl (stereo partly specified),inactive: 0.0342
7,CC[C@H]1OC(=O)[C@H](C)[C@@H](O[C@H]2C[C@@](C)(OC)[C@@H](O)[C@H](C)O2)[C@H](C)[C@@H](O[C@@H]2O[C@H](C)C[C@H](N(C)C)[C@H]2O)[C@](C)(OC)C[C@@H](C)C(=O)[C@H](C)[C@@H](O)[C@]1(C)O [Clarithromycin],inactive: 3.48
8,CNC(C)[C@@H]1CC[C@@H](N)[C@@H](OC2[C@@H](N)C[C@@H](N)[C@H](OC3OC[C@](C)(O)[C@H](NC)[C@H]3O)[C@H]2O)O1 (stereo partly specified),inactive: 2.31
9,"Cn1c(=O)[nH]c2ncn(C)c2c1=O [1,7-Dimethylxanthine]",inactive: 2.9
10,Cn1c(=O)[nH]c2ncn(C)c2c1=O,inactive: 0.8
11,NC(=O)c1ncn(C2O[C@H](CO)[C@@H](O)[C@H]2O)c1N (stereo partly specified),inactive: 2.03
12,COc1cc([C@@H]2c3cc4c(cc3[C@@H](O[C@@H]3O[C@@H]5CO[C@@H](C)O[C@@]5(O)C[C@H]3O)[C@H]3COC(=O)[C@H]23)OCO4)cc(OC)c1O [Etoposide],inactive: 2.62
13,NNc1nncc2ccccc12,inactive: 0.682
14,O=C(NCCN1CCOCC1)c1ccc(Cl)cc1 [Moclobemide],inactive: 3.08
15,COc1ccc(C2CNC(=O)C2)cc1OC1CCCC1 (stereo unspecified),inactive: 3.13
16,CC1(C)C(C=C(Cl)Cl)C1C(=O)OCc1cccc(Oc2ccccc2)c1 (stereo unspecified),inactive: 3.15
17,CN(C)CCC[C@@]1(c2ccc(F)cc2)OCc2cc(C#N)ccc21.O=C(O)C(=O)O [Escitalopram Oxalate],inactive: -1.14
18,CCN(CC)C(=S)SSC(=S)N(CC)CC [Tetraethylthiuram disulfide],inactive: 0.823
19,CCN(CC)C(=S)SSC(=S)N(CC)CC,inactive: 0.92
20,CCN(CC)C(=S)SSC(=S)N(CC)CC [Disulfiram],inactive: 2.86
21,"C[N+]1(C)C2CC(OC(=O)[C@H](CO)c3ccccc3)CC1C1OC12.O=[N+]([O-])[O-] (single isomer, unassigned; (-)) [(-)-Scopolamine methyl nitrate]",inactive: 2.11
22,CC12CCC(=O)C=C1CCC1C2[C@@H](O)CC2(C)C1CC[C@]2(O)C(=O)COP(=O)([O-])[O-].CC[NH+](CC)CC.CC[NH+](CC)CC (stereo partly specified),inactive: 0.747
23,O=S(=O)([O-])Oc1ccc(C(c2ccc(OS(=O)(=O)[O-])cc2)c2ccccn2)cc1.[Na+].[Na+] [Sodium Picosulfate],inactive: 2.92
24,OCc1ccccc1O,inactive: 4.68

# Quoted at random: 2 entries already listed.
row,SMILES,cell-cell fusion (z-score)
8,CNC(C)[C@@H]1CC[C@@H](N)[C@@H](OC2[C@@H](N)C[C@@H](N)[C@H](OC3OC[C@](C)(O)[C@H](NC)[C@H]3O)[C@H]2O)O1 (stereo partly specified),inactive: 2.31
10,Cn1c(=O)[nH]c2ncn(C)c2c1=O,inactive: 0.8

# The listing continues.

row,SMILES,cell-cell fusion (z-score)
1,COc1cc(O)cc(OC)c1OC,inactive: 0.528
2,COc1ccc2c(C)cc(=O)oc2c1,inactive: 1.85
3,NCCCC(O)(P(=O)(O)O)P(=O)(O)O.O.O.O.[Na+],inactive: 2.22
4,COc1cc(O)c(C)c(O)c1,inactive: 2.32
5,O=C(O)/C=C/c1c[nH]cn1 [4-Imidazoleacrylic acid],inactive: 1.1
6,CN(C)CCC(c1ccccc1)c1ccccn1.O=C(O)/C=C\C(=O)O (stereo unspecified) [Pheniramine maleate],inactive: 2.84
7,CC1=C(/C=C/C(C)=C/C=C/C(C)=C/CO)C(C)(C)CCC1 [Retinol],inactive: 3.75
8,Cc1nc(C)c(Cl)c(O)c1Cl,inactive: 2.13
9,O=S(=O)([O-])CCCS(=O)(=O)[O-].[Na+].[Na+],inactive: 2.76
10,C[C@]12N[C@H](Cc3ccccc31)c1ccccc12.O=C(O)/C=C\C(=O)O [(+)-MK-801 hydrogen maleate],inactive: 3.12
11,CC1(C)S[C@@H]2[C@H](NC(=O)[C@H](N)c3ccccc3)C(=O)N2[C@H]1C(=O)O.O.O.O [Ampicillin Trihydrate],inactive: 4.5
12,CS(=O)(=O)c1ccc(C(=O)Nc2ccc(Cl)c(-c3ccccn3)c2)c(Cl)c1 [Vismodegib (GDC-0449)],inactive: 1.84
13,O.O=P(O)(O)C(O)(Cn1ccnc1)P(=O)(O)O [Zoledronic acid monohydrate],inactive: 2.87
14,NC(=O)N1c2ccccc2C=Cc2ccccc21 [Carbamazepine],inactive: 1.86
15,Cc1ccc(C(C)C)c(O)c1C(=O)O,inactive: 2
16,CCN(CC)CCOC(=O)c1ccc(N)cc1 [Procaine],inactive: 2.02
17,O=C(CCCCCCCC(=O)NCCO)NCCO,inactive: 3.2
18,"O=C(O)[C@H]1NCCC[C@H]1C(=O)O (racemic) [(±)-cis-Piperidine-2,3-dicarboxylic acid]",inactive: 1.42
19,NC1CCN(O)C1=O (racemic),inactive: 1.53
20,Cc1c[nH]c(-c2cnc(NCCNc3ccc(C#N)cn3)nc2-c2ccc(Cl)cc2Cl)n1.Cl,inactive: 2.71
21,Cc1ccccc1C(OCCN(C)C)c1ccccc1.Cl (stereo unspecified) [Orphenadrine hydrochloride],inactive: 3.41
22,C=C[C@H]1C[N@@]2CC[C@H]1C[C@@H]2[C@H](O)c1ccnc2ccccc12,inactive: 2.93
23,CC(=O)O[C@H]1C[C@@H]2CC[C@@H]3[C@H](CC[C@@]4(C)[C@H]3C[C@H]([N+]3(C)CCCCC3)[C@@H]4OC(C)=O)[C@@]2(C)C[C@@H]1N1CCCCC1.[Br-] [Vecuronium bromide],inactive: 3.38
24,CC1(C)CCC[C@]2(C)[C@H]3CC(=O)O[C@]3(C)CC[C@@H]12,inactive: 1.5

# 15 entries from above, as tab-separated lines.
row	SMILES	cell-cell fusion (z-score)
4	COc1cc(O)c(C)c(O)c1	inactive: 2.32
5	O=C(O)/C=C/c1c[nH]cn1 [4-Imidazoleacrylic acid]	inactive: 1.1
6	CN(C)CCC(c1ccccc1)c1ccccn1.O=C(O)/C=C\C(=O)O (stereo unspecified) [Pheniramine maleate]	inactive: 2.84
7	CC1=C(/C=C/C(C)=C/C=C/C(C)=C/CO)C(C)(C)CCC1 [Retinol]	inactive: 3.75
8	Cc1nc(C)c(Cl)c(O)c1Cl	inactive: 2.13
9	O=S(=O)([O-])CCCS(=O)(=O)[O-].[Na+].[Na+]	inactive: 2.76
10	C[C@]12N[C@H](Cc3ccccc31)c1ccccc12.O=C(O)/C=C\C(=O)O [(+)-MK-801 hydrogen maleate]	inactive: 3.12
11	CC1(C)S[C@@H]2[C@H](NC(=O)[C@H](N)c3ccccc3)C(=O)N2[C@H]1C(=O)O.O.O.O [Ampicillin Trihydrate]	inactive: 4.5
12	CS(=O)(=O)c1ccc(C(=O)Nc2ccc(Cl)c(-c3ccccn3)c2)c(Cl)c1 [Vismodegib (GDC-0449)]	inactive: 1.84
13	O.O=P(O)(O)C(O)(Cn1ccnc1)P(=O)(O)O [Zoledronic acid monohydrate]	inactive: 2.87
14	NC(=O)N1c2ccccc2C=Cc2ccccc21 [Carbamazepine]	inactive: 1.86
15	Cc1ccc(C(C)C)c(O)c1C(=O)O	inactive: 2
16	CCN(CC)CCOC(=O)c1ccc(N)cc1 [Procaine]	inactive: 2.02
17	O=C(CCCCCCCC(=O)NCCO)NCCO	inactive: 3.2
18	O=C(O)[C@H]1NCCC[C@H]1C(=O)O (racemic) [(±)-cis-Piperidine-2,3-dicarboxylic acid]	inactive: 1.42

# The results go on:

row,SMILES,cell-cell fusion (z-score)
1,C1CNCCN1.C[C@]12CC[C@@H]3c4ccc(OS(=O)(=O)O)cc4CC[C@H]3[C@@H]1CCC2=O [Estropipate],inactive: 2.17
2,Clc1ccc(CCC(Cn2ccnc2)Sc2c(Cl)cccc2Cl)cc1.O=[N+]([O-])O (stereo unspecified) [Butoconazole nitrate],inactive: -1.53
3,O.S=c1nc[nH]c2nc[nH]c12 [6-Mercaptopurine monohydrate],inactive: 2.31
4,CN(C)CCC=C1c2ccccc2C=Cc2ccccc21.Cl [Cyclobenzaprine hydrochloride],inactive: 1.04
5,S=c1ccss1,inactive: 3.38
6,Nc1nc(N)nc(NC2CC2)n1,inactive: 1.28
7,C[C@H](CCC(=O)O)[C@H]1CCC2C3C(CC[C@@]21C)[C@@]1(C)CC[C@@H](O)C[C@H]1C[C@H]3O (stereo partly specified),inactive: 3.03
8,Nc1nc2c(ncn2C2O[C@H](CO)[C@@H](O)[C@H]2O)c(=S)[nH]1 (stereo partly specified),inactive: 2.42
9,COc1nc(-c2ccc3c(c2)OCO3)n(-c2ccc(NC(=O)CSc3ccccc3)cc2)n1 [SecinH3],inactive: 2.78
10,CC(C)CCCC(C)N (stereo unspecified),inactive: 3.72
11,CCCc1nn(C)c2c(=O)[nH]c(-c3cc(S(=O)(=O)N4CCN(C)CC4)ccc3OCC)nc12 [Sildenafil],inactive: 1.37
12,Cc1ccnc(NS(=O)(=O)c2ccc(N)cc2)n1,inactive: 2.03
13,COc1ccc(-c2coc3c4c(c(CC=C(C)C)c(OC)c3c2=O)OC(C)(C)C=C4)cc1OC,inactive: 2.44
14,C[C@H]1O[C@@H](O[C@H]2[C@@H](O)C[C@H](O[C@H]3[C@@H](O)C[C@H](O[C@H]4CC[C@]5(C)C6CC[C@]7(C)[C@@H](C8=CC(=O)OC8)CC[C@]7(O)C6CC[C@@H]5C4)O[C@@H]3C)O[C@@H]2C)C[C@H](O)[C@@H]1O (stereo partly specified),inactive: -0.208
15,CN[C@H]1C[C@@H](N)[C@H](O)[C@@H](O[C@@H]2O[C@H](CO)[C@@H]3OC4(O[C@@H]3[C@@H]2O)O[C@H](C(N)CO)[C@H](O)[C@H](O)[C@H]4O)[C@@H]1O (stereo partly specified),inactive: 1.64
16,CNC(=O)[C@H]1O[C@@H](n2cnc3c(NCc4ccc(I)cc4)nc(Cl)nc32)[C@H](O)[C@@H]1O [Chloro-IB-MECA],active: -11.5
17,C=C1CC[C@H](O)C/C1=C/C=C1\CCC[C@]2(C)C([C@H](C)/C=C/[C@H](C)C(C)C)CC[C@@H]12 (stereo partly specified),inactive: 1.65
18,COc1cc([C@@H]2c3cc4c(cc3C(O[C@@H]3O[C@@H]5CO[C@@H](c6cccs6)OC5[C@H](O)[C@H]3O)C3COC(=O)[C@@H]32)OCO4)cc(OC)c1O (stereo partly specified),inactive: 3.67
19,CC1=NN=C(c2ccc(N)cc2)c2cc3c(cc2C1)OCO3.Cl,inactive: 8.95
20,CN1CCc2ccccc2Cc2[nH]c3ccccc3c2CC1,inactive: 3.03
21,O=c1[nH]cnc2[nH]ncc12,inactive: 1.39
22,COc1cc2occ(-c3ccccc3)c(=O)c2c(OC)c1C,inactive: 1.87
23,O=Cc1ccccc1O[C@@H]1O[C@H](CO)[C@H](O)[C@@H](O)[C@H]1O,inactive: 1.63
